Assay results: publication PMC6138628 (Scientific Reports, 2018)
Strings that start with PEPTIDE1 are HELM notation: dots part the residues, brackets hold end groups and non-standard residues.

Experiment: general procedure: Fmoc solid-phase peptide synthesis
Settings: whole synthesis

## PEPTIDE1{H.G.L.A.S.T.L.T.R.W.A.H.Y.N.A.L.I.R.A.F.[am]}$$$$V2.0
  purity (crude or final not stated): higher than 98%
